Data published in article doi:10.1101/2021.07.26.453741.
These are yes or no findings as the source states them, for the method shown. Binding can be weak; no strength is given. For part of these data: In cells and extracts the contact can be indirect.

Tests used:
[1] = target: Cpn20 (endogenous chloroplast co-chaperonin) (Chlamydomonas reinhardtii); assay: co-IP
[2] = target: ClpR6 (Chlamydomonas reinhardtii); assay: cryo-EM structure
[3] = target: ClpR3 (Chlamydomonas reinhardtii); assay: cryo-EM structure

Measured: binding

B1: ClpT4 (protein, UniProt A8J353 65-244)
chain: ATATAAPSELDDVGVSAAAESIIQYAINFARASETYEVHSWMVLMGILKYETCTAAKILKSLGLEDLYGAWNEVLWALNVCDGLQPRSFVTDIKFADRAFKVITAASDFAVWHGKDKMYSEDVLMALAAGGVLEDLFPDLNLSFERVRKAVEKESGRRYQLPDETEEAGPLKSEDDVSFL
binds: all assays above
